Data on 69 sequences can be found in PubChem BioAssay AID1508600 (Functional Genomics Laboratory (NCATS/FGL), 2020).

In all, about 53,000 sequences went through this assay and about 3,700 (7%) were called active.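 The calls were made as follows: active = gene knockdowns whose robust z-score for IL-1 alpha signal is at least 2 or at most -2, so actives lie on both sides; inactive = the rest.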 The list shows a part of the results.

The experiment can be described thus: Components of the Cytosolic LPS Sensing Pathway: Gene Identification via Genome-wide siRNA Screen.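 Also: robust z of the log signal after scaling to non-targeting control siRNA wells of the plate.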 Conditions: RAW264.7 macrophages, IL-1a HTRF, actives lie on both sides, screened at 100 nM (by protocol), cells primed 5 h with Pam3CSK4 first. The method, boiled down:
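RAW264.7; siRNA 100 nM final, RNAiMAX, 48h 37 degrees C; Pam3CSK4 5 h; LipidA + TransIT-TKO 24 h; IL-1a HTRF; CellTiter-Glo viability; robust z vs negative-control median.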
(In TR-FRET formats the signal depends on donor and acceptor labels being close together.)
As for GGGAGUGAUGUUCUUAUUGTT against Slc35f2, the z-score is inactive: -1.3.

In the case of GGCAGCUAUAGGUUAGAUUTT against Gm5600, the z-score was inactive: -0.674.

Consider GGACACAGAAUGUUCUUGGTT against Rps3, for which the z-score is inactive: 0.029.

For the sequence GUUAUUUGUAUGGUGAGAUTT against Hpcal1, the z-score was inactive: -1.06.

Consider CGUAUUGCCUUAGUGUAUGTT against Olfr433, for which the z-score was active: -2.7.

Take GCCAUGAGACACCUUCUCUTT against Olfr843: the z-score was inactive: -1.96.

In the case of CCGGAAGCUAUUGACCAUUTT against Tmem11, the z-score is active: 3.21.

Turning to AGUUCCCACCAAAAACUUATT against Iigp1b, the z-score was inactive: -0.4.

Regarding GGCCAAGUCAAAAUAUUCUTT against Gpr137b, the z-score is inactive: 1.45.

CCUAUAGCUUCGGCAAGACTT against Mlxip: the z-score is inactive: 0.655.

For the sequence GGGUCUACCUGACAAUAAATT against Dgkk, the z-score is inactive: -0.943.

For the sequence GGAAGAUCAUAAUGGACAGTT against Pcsk9, the z-score is active: 6.01.

In the case of GCAUCAAGGCUCAUAUGAUTT against Taf15, the z-score is inactive: 0.384.

For the sequence GCAAGGCUUGGGUAACCAUTT against Apbb1ip, the z-score is inactive: 0.141.

With GGAACAUCUUCACUUAGUATT against Kcna6, the z-score is inactive: 1.

On to CCAUUUUCUCAGUGAUCAATT against Taar7a, for which the z-score was inactive: -0.314.

Turning to GCACUUAUGGCCAUUUCAGTT against Emc4, the z-score is inactive: 0.192.

For the sequence GGACAUGGCACAUCAAGUCTT against Rpusd4, the z-score was inactive: -0.512.

Turning to GGAUUACCUGGAGAAGUACTT against Pga5, the z-score is inactive: -1.44.

For the sequence GGAAUCAGUUUCCCUGUAUTT against Igsf5, the z-score was inactive: -0.632.

As to GCAUGUGUAUGAUAAGAUCTT against Bbs5, the z-score was inactive: 0.0354.

As to GGAGAUACUAUGUUGCAUUTT against Fgf9, the z-score was inactive: 0.537.

Consider CCAAGAGUAACCUCUACAATT against Hivep3, for which the z-score was inactive: -0.125.

As for GGCAAAGUGAUAUUUUCAATT against Slc6a12, the z-score was inactive: 0.394.

Regarding GGUAAAUGCAGAGGGAACATT against Ak5, the z-score was inactive: 0.836.

Consider GGAUUAAAGAUGCUUCCAATT against Ap1ar, for which the z-score was inactive: 0.762.

For GCCCUGGCCACAUGUAGUUTT against Olfr98, the z-score was inactive: 0.835.

Regarding GCAGUCCAAAAAAUUCGGUTT against Stox2, the z-score was active: -2.15.

For GGCAGAGACCACUAAUACCTT against Tmem131l, the z-score was inactive: -0.881.

As for GGAAGGUUGUCUUACUUUUTT against Pkd2, the z-score was inactive: -0.322.

For the sequence GGAUGUUUUCCAGUAUGAATT against Nox1, the z-score was inactive: 0.109.

As to GCAGCUUGACCAAGUCCAUTT against Wipi1, the z-score is inactive: 0.195.

On to GGAAGCCCACUACAACAAUTT against Krt19, for which the z-score is inactive: -0.236.

In the case of GCAUAUUGUGCGACUUUUCTT against Utp15, the z-score was active: -2.16.

Regarding CGCGCUUUUUAGCAAAUAUTT against Hoxa7, the z-score was inactive: 1.31.

As for CCAUUUUACACCUCAAUCATT against Fggy, the z-score was inactive: -0.687.

With GGUAGUUCAGAGACACGGGTT against Otos, the z-score was inactive: 1.28.

Consider GCUAUACGAAGACUUCAGCTT against Hdhd3, for which the z-score was inactive: 0.972.

For GGAAGAAAACAAUCAGAUGTT against Cd209a, the z-score was inactive: -0.0123.

On to GCAUCAGUAUGAGAUUAGGTT against Ccne2, for which the z-score was inactive: -0.421.

As to GCAAUGGACACGAUUCUUATT against Tvp23b, the z-score was inactive: 0.87.

Turning to GCUCUUGAGCCUACAACUGTT against Pmfbp1, the z-score was inactive: -0.122.

GCAAUAGAUCUGGUCCUUUTT against Olfr552: the z-score was inactive: 0.334.

For the sequence CGUGUAUCAUCUCAAGUGUTT against Lmo4, the z-score was inactive: 1.14.

For GGAUGACUGUUAUUUUUGUTT against Sema4g, the z-score is inactive: -0.0503.

With GGAACAUGUAUCCCAAAGCTT against Cysrt1, the z-score was inactive: 0.666.

As for GGAGUAGAAGAAGAGGAGUTT against Mrpl50, the z-score was inactive: 0.946.

As to CGUACCUAAUCUGCCUAUCTT against Zic3, the z-score was inactive: 0.0287.

As to GGUUGCUUCAUUGAUGUAUTT against Olfr867, the z-score was inactive: -1.6.

Consider GCCAGUACGAAGUGAUCUGTT against Ackr4, for which the z-score was active: 2.8.

For GGGCAAGACUUAAUUUUGGTT against Dppa1, the z-score is inactive: -0.36.

As for GGAGGGAAGGCUGUGAAUATT against Syt7, the z-score is inactive: -0.344.

On to CCAUUGAAGCCGAAUCAGATT against Slfn3, for which the z-score was inactive: -0.0672.

As to GAACUCCCAACCCUGGCAATT against Klk1b5, the z-score was inactive: 0.347.

On to GGCUCAAAGCCAAUCUGAATT against Recql4, for which the z-score is active: 2.06.

In the case of “CGUACCUUUUUUAUCCUAATT against 6030445D17Rik”, the z-score is inactive: -1.29.

On to GGAGGAGGACUUUGAUGACTT against Gon4l, for which the z-score is inactive: -0.128.

As to GAGCUAUGUUCUUGGAUGATT against Vmn1r47, the z-score was inactive: -0.573.

As to GGAGAAGCUGAAAUUUCUGTT against Tesc, the z-score was inactive: -0.0493.

As to CCCAUUUAAAUACAUACGATT against Ly9, the z-score is inactive: 0.956.

With GGUUGUCGCCAGAAUCAAGTT against Slc9a3r2, the z-score is active: 2.28.

Take GGAGCUAAAAGAGAUCAACTT against Bicd2: the z-score is inactive: 1.33.

In the case of GCUACGGAACAAUCACAGCTT against Kdm5d, the z-score was inactive: 1.73.

Take CUGUUACCUAUCCCUCAUCTT against Sstr3: the z-score is inactive: -0.663.

Take GGUUUAGAUGAUUUCUUCCTT against Ap3m1: the z-score was inactive: 0.861.

For the sequence GGCACUCCAUGGAAAUUAGTT against Sh3rf3, the z-score was inactive: -0.994.

GCUAGCAGAGAUACAAUGUTT against Rasal3: the z-score was active: 3.

On to GGAAGUAAUUCACAACCAGTT against Pfdn1, for which the z-score was inactive: -0.0518.

For the sequence CCAUGUUCAUCUUCUUGGGTT against Olfr76, the z-score is inactive: -1.04.
